# Some of the results follow.
# Test: HT29 colon tumor cell growth inhibition, primary screen, imaging, high content imaging, 72 h, CellTiter-Glo (AID 772);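 for condensed nuclei: condensed means nuclear area below control median minus 1.5 SD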
# Conditions: HCS imaging cell count, at 10 µM, stronger effect = higher value; condensed nuclei: measured here: percent cells with condensed nuclei; growth inhibition: measured here: ATP CellTiter-Glo viability
SMILES,condensed nuclei,growth inhibition
Cc1ccc(OCC(=O)OC2CN3CCC2CC3)cc1 (stereo unspecified),7.96%,-16.1%
Cc1cccc(OCC(=O)OC2CN3CCC2CC3)c1 (stereo unspecified),3.76%,-27.1%
CCN(CC)CC(O)COC(=O)C(O)(c1ccccc1)C1CCCCC1 (stereo unspecified),12.8%,2.25%

# From PubChem BioAssay AID772 (SRMLSC, 2007)
